Data source: PubChem BioAssay AID1259425 (University of Nebraska Medical Center, 2018)

Assay: 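Seek colon cancer weak points whose silencing resembles KSR1 loss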 (primary screen)
System: HCT116 human colon cancer cells
Reagent: siRNA pool against human genes, 50 nM siRNA
Measurement: 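mRNA of six signature genes measured together by branched-DNA assay after 50 nM siRNA pool, blank removed, divided by geometric mean of two housekeeping genes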
Direction: BNIP3L mRNA: higher = more BNIP3L transcript after knockdown; NDRG1 mRNA: higher = more NDRG1 transcript after knockdown; BNIP3 mRNA: higher = more BNIP3 transcript after knockdown; ALDOC mRNA: higher = more ALDOC transcript after knockdown; ACSL5 mRNA: higher = more ACSL5 transcript after knockdown
This is a random part of about 14,000 reagents. Reagent sequences are not shown. The record does not give: the time to read-out.

no.	gene symbol	BNIP3L mRNA, set 1	NDRG1 mRNA, set 1	BNIP3 mRNA, set 1	ALDOC mRNA, set 1	ACSL5 mRNA, set 1
1	RASL11B (RAS like family 11 member B)	0.103	0.086	0.294	0.00986	0.113
2	PSKH1 (protein serine kinase H1)	0.107	0.275	0.167	0.00272	0.174
3	ADCY1 (adenylate cyclase 1)	0.0884	0.154	0.229	0.0332	0.184
4	ASIC5 (acid sensing ion channel subunit family member 5)	0.0957	0.305	0.301	0.0359	0.236
5	ZNF28 (zinc finger protein 28)	0.174	0.132	0.209	0.0135	0.142
6	IGKC (immunoglobulin kappa constant)	0.0853	0.0749	0.348	0.0174	0.0638
7	ZKSCAN7 (zinc finger with KRAB and SCAN domains 7)	0.159	0.113	0.574	0.0416	0.12
8	RGS22 (regulator of G protein signaling 22)	0.106	0.256	0.838	0.0928	0.299
9	GMFG (glia maturation factor gamma)	0.0501	0.0671	0.224	0.00673	0.0911
10	ATP6V1C1 (ATPase H+ transporting V1 subunit C1)	0.128	0.159	0.337	0.0411	0.232
11	RTRAF (RNA transcription, translation and transport factor)	0.128	0.445	0.36	0.023	0.118
12	CPA2 (carboxypeptidase A2)	0.0937	0.139	0.276	0.00457	0.258
13	CCR4 (C-C motif chemokine receptor 4)	0.146	0.197	0.252	0.0228	0.189
14	CDC23 (cell division cycle 23)	0.0668	0.0355	0.174	0.00359	0.205
15	GDF15 (growth differentiation factor 15)	0.154	0.219	0.163	0.0247	0.132
16	MEDAG (mesenteric estrogen dependent adipogenesis)	0.113	0.329	0.213	0.0283	0.165
17	CLCC1 (chloride channel CLIC like 1)	0.108	0.161	0.186	0.0111	0.138
18	CHST8 (carbohydrate sulfotransferase 8)	0.113	0.175	0.302	0.0226	0.212
19	WRAP73 (WD repeat containing, antisense to TP73)	0.217	0.529	0.214	0.174	0.179

4 entries from above, reformatted:
{"gene symbol":"ADCY1 (adenylate cyclase 1)","BNIP3L mRNA, set 1":0.0884,"NDRG1 mRNA, set 1":0.154,"BNIP3 mRNA, set 1":0.229,"ALDOC mRNA, set 1":0.0332,"ACSL5 mRNA, set 1":0.184}
{"gene symbol":"ASIC5 (acid sensing ion channel subunit family member 5)","BNIP3L mRNA, set 1":0.0957,"NDRG1 mRNA, set 1":0.305,"BNIP3 mRNA, set 1":0.301,"ALDOC mRNA, set 1":0.0359,"ACSL5 mRNA, set 1":0.236}
{"gene symbol":"ZNF28 (zinc finger protein 28)","BNIP3L mRNA, set 1":0.174,"NDRG1 mRNA, set 1":0.132,"BNIP3 mRNA, set 1":0.209,"ALDOC mRNA, set 1":0.0135,"ACSL5 mRNA, set 1":0.142}
{"gene symbol":"IGKC (immunoglobulin kappa constant)","BNIP3L mRNA, set 1":0.0853,"NDRG1 mRNA, set 1":0.0749,"BNIP3 mRNA, set 1":0.348,"ALDOC mRNA, set 1":0.0174,"ACSL5 mRNA, set 1":0.0638}

Next records follow:
no.	gene symbol	BNIP3L mRNA, set 1	NDRG1 mRNA, set 1	BNIP3 mRNA, set 1	ALDOC mRNA, set 1	ACSL5 mRNA, set 1
20	MMP26 (matrix metallopeptidase 26)	0.115	0.0853	0.421	0.0861	0.133
21	TMEM245 (transmembrane protein 245)	0.149	0.328	0.471	0.0464	0.225
22	METTL25B (methyltransferase like 25B)	0.276	0.475	0.826	0.0318	0.3
23	TBX2 (T-box transcription factor 2)	0.0914	0.0462	0.277	0.0099	0.138
24	TMEM87B (transmembrane protein 87B)	0.14	0.171	0.217	0.0512	0.102
25	ANKRD53 (ankyrin repeat domain 53)	0.0779	0.113	0.239	0.0427	0.23
26	KAT14 (lysine acetyltransferase 14)	0.171	0.419	0.389	0.0389	0.269
27	CNDP2 (carnosine dipeptidase 2)	0.0703	0.129	0.421	0.064	0.226
28	NDUFB7 (NADH:ubiquinone oxidoreductase subunit B7)	0.33	0.974	1.49	0.238	0.233
29	GNG12 (G protein subunit gamma 12)	0.0729	0.104	0.254	0.0136	0.166
30	ZBTB7B (zinc finger and BTB domain containing 7B)	0.0992	0.104	0.299	-0.000846	0.124
31	SH3KBP1 (SH3 domain containing kinase binding protein 1)	0.2	0.496	0.257	0.0168	0.281
32	EDEM3 (ER degradation enhancing alpha-mannosidase like protein 3)	0.0513	0.0594	0.22	0.0161	0.0684
33	MPDZ (multiple PDZ domain crumbs cell polarity complex component)	0.0343	0.177	0.257	0.0164	0.199
34	NCR1 (natural cytotoxicity triggering receptor 1)	0.123	0.15	0.231	0.0634	0.169
